Reference: EP1531819B1, “USE OF I kappa B KINASE INHIBITORS FOR THE TREATMENT OF PAIN” (Sanofi-Aventis Deutschland GmbH, priority 2002, dated 2004)
At least one compound was matched to its structure with a doubt left.

Tested on: Zymosan-induzierte Pfotenentzündung bei der Maus
Experiment: Model 3: zymosan-induced paw inflammation, paw withdrawal latency on thermal stimulation (Hargreaves Test), AUC
Assay type: in vivo
Procedure: Parameter: Pfotenwegziehzeit bei thermischer Stimulation der Hinterpfote. Versuchsdurchführung: In Kurzzeitnarkose mit Isofluran wurde dem Versuchstier 25 μl einer Suspension, die 50 mg/ml Zymosan enthielt, in die rechte Hinterpfote injiziert. Dann wurde die […] quantitativ wie folgt bestimmt: Bestimmung der Pfotenwegziehzeit bei thermischer Stimulation (Hargreaves Test; s.o.). Das Versuchstier wurde in […] Versuchstier nach der Erkundungsphase (etwa 5 min) nicht mehr bewegte, wurde […] zu stimulierenden Hinterpfote positioniert und […]. Die […] ab, so dass die Hauttemperatur […] linear […] Pfote […] ab. Die Pfotentemperatur zum Zeitpunkt des Wegziehens ist für das Tier gerade eben unangenehm, […] von thermischer Schmerzschwelle. Kurz vor Zymosan-Injektion und für 7 bis 14 Tage nach Injektion wurde […] an der rechten und linken Hinterpfote bestimmt. Anschließend wurde […] Integral der Fläche, die aus […] und […] Pfote gebildet wurde, bestimmt (AUC, area between the curves, s. Tabellen 5 und 6). Je größer dieser Wert ist, umso […], und je kleiner der Wert bei Tieren, die die Substanz erhalten, desto stärker ist der Therapieerfolg. In einer 7-Tage Studie induzierte die Zymosan Injektion in […], Tab. 5). In den anderen Gruppen wurde die Substanzgabe einen Tag nach Zymosan Injektion, […] schon […]. […] Die […] Studie (7 Tage) ergab, dass die AUC unter Substanzgabe dosisabhängig abnahm. […]

`Cc1ccc(-c2cc(C(F)(F)F)nn2-c2ccc(S(N)(=O)=O)cc2)cc1` [Celecoxib, reference compound] was tested, and the “Effekte on thermische Hyperalgesie in der hohen Dosierung” value (14-day study, high dose (25 mg/kg)) was “gleich stark” and the “Statistischer Unterschied gegenüber Vehikel” value (thermische Hyperalgesie AUC, 14 days, 25 mg/kg twice daily) was “ja”.
